The record followed here is PMC9249852.

By UniProt entry, the sequences of proteins in these tests, tags left out. Where a name states a change or a piece, a line headed by the entry shows the natural chain unless it says otherwise.
UniProt P09077: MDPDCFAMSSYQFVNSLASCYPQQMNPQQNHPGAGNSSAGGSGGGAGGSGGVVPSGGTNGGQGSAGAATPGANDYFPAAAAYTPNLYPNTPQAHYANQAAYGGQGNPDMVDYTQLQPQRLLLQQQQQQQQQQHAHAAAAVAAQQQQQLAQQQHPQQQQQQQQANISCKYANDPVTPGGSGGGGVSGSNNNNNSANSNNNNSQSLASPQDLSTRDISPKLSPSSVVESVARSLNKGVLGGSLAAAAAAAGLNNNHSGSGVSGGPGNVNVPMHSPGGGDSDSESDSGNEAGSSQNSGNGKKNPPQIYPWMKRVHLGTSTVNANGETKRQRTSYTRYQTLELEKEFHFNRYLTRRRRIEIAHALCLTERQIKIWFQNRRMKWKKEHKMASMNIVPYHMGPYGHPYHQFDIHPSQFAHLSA

The series addresses EGFP-Scr-FLAG (UniProt P09077). As to the kind of experiment: biotin-DNA pull-down, anti-FLAG western. To be noted: without Dll, Pull-down in 1 ml: 500 ul protein in dialysis buffer (20 mM HEPES pH 8.0, 200 mM NaCl, 10% glycerol, 2 mM MgCl2), recombinant protein, residues 1-417, label: 5' biotin on strand 2 (SR1 primer).

The exact form of at least one protein or probe is not confirmed. Weaker means in comparison with the reference protein, sequence or condition of that experiment. At least one verdict was read from the data and is not stated in words by the source.

Consider “TGGGCCTGGTAATTAATTTAATTATCCAGGTCGTATGCCGTCTTCTGCTTG (double strand) [probe-Scr-Dll consensus]”, for which the binding result (mCherry control has no effect) was “binds more weakly”.
Consider “ATCGTTAAATTACCGCAATTTGCATGTTCGTATGCCGTCTTCTGCTTG (double strand) [probe-dpy (dpy-1)]”, for which the binding result is “binds more weakly”.
Turning to “AATATTTTATAAATTTAATAAATTGAGTCGTATGCCGTCTTCTGCTTG (double strand) [probe-dsx (dsx-1)]”, the binding result is “binds more weakly”.
